Measurements: PubChem BioAssay AID1458 (National Center for Advancing Translational Sciences (NCATS), 2008)
In all, about 210,000 compounds went through this assay and about 5,900 (2.8%) were called active. Inconclusive results (about 5%) are left out. Calls follow the shape of the dose curve; as a rule, active = well fitted activation curve with a large enough effect; inconclusive = small, poorly fitted or top-dose-only effect; inactive = no such curve, though single readings can be large or run the other way. Only a part is listed here, and it is no random draw. Entries without a call were filed so in the source.

Test: qHTS Assay for Enhancers of SMN2 Splice Variant Expression; also: nearly all actives have a fitted effect of over 55% in size; as to activity change, positive = activation: % of control where 0% means no effect
Conditions: HEK293 SMN2-luciferase splicing reporter, luminescence, 30-36 h; activity change, positive = activation: at 46.1 µM (top of the series) unless noted
In short: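 qHTS luciferase splicing reporter: luminescence rises when SMN2 exon 7 is included in transfected HEK293 cells. Compound exposure lasted 30-36 h at 37C, with 4.5 mM final sodium butyrate as control, followed by a ONE-Glo read.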
Potency is read from the fitted curve at half-maximal effect.

SMILES	activity change, positive = activation	Potency
CCOC(=O)c1ccc(N2Cc3ccccc3C2)cc1O	35.9%	–
CCCCCC(=O)Nc1ccc(-c2cn3cccnc3n2)cc1	80.5%	–
Cc1cc(C(=O)CSc2nnc(-c3ccc4c(c3)OCO4)o2)c(C)n1-c1ccc(F)cc1	inactive: -64.7%	–
COc1cccc(C2=CC(c3ccc(OC)c(OC)c3OC)n3nnnc3N2)c1 (stereo not drawn)	-50%	–
CCc1ccc(-c2nc(CSCC(=O)N3CCN(c4ccccn4)CC3)c(C)o2)cc1	-32.5%	–
Cc1ccc(S(=O)(=O)N(C)CCCC(=O)Nc2cccc3ccccc23)cc1	-44.5%	–
CCOC(=O)CSc1ccc(S(=O)(=O)N(C)C2CCCCC2)cc1[N+](=O)[O-]	52%	–
Cc1ccc(N(CC(=O)NCCc2ccc(Cl)cc2)S(=O)(=O)N(C)C)cc1	30.7%	–
CSc1cccc(NC(=O)CN(C)S(=O)(=O)c2ccc(F)cc2)c1	18.6%	–
CCc1ccc(OCC(=O)N2c3ccccc3CCc3ccccc32)cc1	-57.9%	–
COCCn1cnnc1SCC(=O)Nc1ccccc1C(=O)Nc1ccc2c(c1)OCO2	50.4%	–
N#Cc1ccc(C(=O)Nc2ccc(N3CCN(C(=O)c4ccco4)CC3)cc2)c(F)c1	-30.7%	–
CCCNS(=O)(=O)c1ccc(CCC(=O)Nc2cc(Cl)ccc2Oc2ccccc2)cc1	inactive: -62.2%	–
O=C(NCC1CCCO1)c1cccc(Oc2ccc([N+](=O)[O-])cc2Cl)c1 (stereo not drawn)	inactive: -33.2%	–
O=C(CSc1ccc2ccccc2c1)Nc1nc2ccccc2[nH]1	-41.9%	–
C#CCOc1ccc(C2C(C(=O)OC)=C(C)NC3=C2C(=O)c2ccccc23)cc1OCC (stereo not drawn)	34.1%	–
Cc1ccc2n(n1)c(=O)c(Cc1ccccc1)c([O-])[n+]2-c1ccccc1	inactive: -25.1%	–
NS(=O)(=O)c1ccc(CCNc2ncnc3sccc23)cc1	-64.7%	–
O=C(Nc1ccc(NC(=O)c2ccco2)nc1)c1cccnc1	–	active: 11.2 µM
Nc1c(C(=O)N2CCOCC2)sc2nc3c(cc12)CCC3	–	active: 11.2 µM
COC(=O)c1ccc(COc2ccccc2/C=N/Nc2cccc(C(=O)O)c2)cc1	34%	–
N#C/C(=C\c1ccc(O)c(O)c1)C(=O)Nc1ccccc1	–	active: 22.4 µM
CC1CC(C)CN(c2nc3c(c(=O)n(C)c(=O)n3C)n2C)C1 (stereo not drawn)	49.4%	–
CCCC[C@H]1C[C@@H]1[C@@H]1N(P(=O)(c2ccccc2)c2ccccc2)[C@](CO)(c2ccccc2)CC12CC2	inactive: -53.1%	–
O=C(N/N=C\c1ccccn1)C1COc2cc3ccccc3cc2O1 (stereo not drawn)	-64.9%	–
COc1ccc(NC(=O)/C(C#N)=C/c2c(C)nn(-c3ccc(F)cc3)c2Cl)cc1OC	24.7%	–
Cc1nc2ccc(C(C(F)(F)F)(C(F)(F)F)C(F)(F)F)cc2[nH]1	39.1%	–

Ordered by heavy-atom count (largest number first): three of the compounds above.
SMILES	activity change, positive = activation	Potency
CCc1ccc(OCC(=O)N2c3ccccc3CCc3ccccc32)cc1	-57.9%	–
O=C(N/N=C\c1ccccn1)C1COc2cc3ccccc3cc2O1 (stereo not drawn)	-64.9%	–
CSc1cccc(NC(=O)CN(C)S(=O)(=O)c2ccc(F)cc2)c1	18.6%	–

The list goes on.

SMILES	activity change, positive = activation	Potency
Cc1ccc(-c2nc(-c3ccccn3)no2)cc1Cl	-41.5%	–
Cc1ccc(-n2c(-c3ccccc3)c[n+]3c2CCC3)cc1	inactive: -32.1%	–
O=C(N/C(=C\c1ccc(Cl)cc1)C(=O)N1CCOCC1)c1ccc([N+](=O)[O-])cc1	-13.3%	–
COc1cc(Nc2nc(-c3ccc(OC)c(OC)c3)nc3ccccc23)cc(OC)c1	inactive: -30%	–
COc1ccc(CCNC(=O)C2CCCN(Cc3nc(-c4cccc(Cl)c4)oc3C)C2)cc1OC (stereo not drawn)	-48.9%	–
CCc1ccc(-c2ccc(SCC(=O)Nc3nnc(C)s3)nn2)cc1	–	active: 12.6 µM
CCOC(=O)C1CCN(C(=O)COc2ccc(Cl)cc2C)CC1	-72.4%	–
CC1Sc2ccccc2N(CC(=O)N(C(C)C)C(C)C)C1=O (stereo not drawn)	27.9%	–
Cc1ccc(N(CC(=O)N2CCN(c3cccc(C)c3C)CC2)S(=O)(=O)c2c(C)nn(C)c2C)cc1	inactive: -49.8%	–
Cn1cc(-c2nc3ccccc3[nH]2)c2ccccc21	–	active: 22.4 µM
Cc1cc(C(=O)CSc2nc3ccccc3o2)c(C)n1CC1CCCO1 (stereo not drawn)	inactive: -89%	–
CC1CCN(c2ccc(C(=O)Nc3ccc4c(c3)OCO4)cc2[N+](=O)[O-])CC1	-58.1% [at 1.84 µM]	–
CCOC(=O)N1CCN(C(=O)COc2cccc3c2CCN(Cc2cccc(C)c2)C3=O)CC1	inactive: -40.1%	–
Cc1ccc(S(=O)(=O)N2CCC(C(=O)NCCc3ccccc3)CC2)cc1	-45.8%	–
CCN(CC)CC(=O)Nc1ccc(C)cc1Br	40.4%	–
CNS(=O)(=O)c1cc(OC)ccc1OC	35.9%	–
O=C1CCC(=O)N1CC(=O)N1c2ccccc2Sc2ccccc21	21.3%	–
Cc1cccc(Nc2nc(-c3cccs3)cs2)n1	–	active: 1.41 µM
O=C(Nc1ccc(S(=O)(=O)Nc2ccccc2)cc1)C1COc2ccccc2O1 (stereo not drawn)	-55.6%	–
O=C(N/N=C/c1ccc2c(c1)OCO2)c1cc(-c2ccncc2)nc2ccccc12	inactive: -26.3%	–
Cc1ccc(CN=c2c([N+](=O)[O-])nn(-c3ccc4c(c3)OCCO4)n2O)cc1	-34.3%	–
N#CCCN(CCC#N)C(=O)c1ccc2c(c1)OCO2	28.5%	–
CCC12CN(C(=O)c3ccc(C)cc3)CC(CC)(CN(C(=O)c3ccc(C)cc3)C1)C2=O	12.9%	–
CCCCNC(=O)CSc1nnc(-c2c[nH]c3ccccc23)n1CC1CCCO1 (stereo not drawn)	48%	–
COc1ccc(OC)c2sc(NC(=O)C3=COCCO3)nc12	inactive: -49.4%	–
COc1ccccc1Cn1cc(C(=O)c2ccc(Cl)cc2)c(=O)c2ccccc21	39.8%	–
